Measurements from patent US8536137B2, “Methods for treating nucleoside-induced pain” (UCB Pharma GmbH, priority 2004, dated 2013).

Experiments:
Assay type in all cases: in vivo
[1] = test system: bone cancer rats (MRMT-1 rat mammary gland carcinoma cells injected into the tibia); assay: Bone cancer rat model: weight bearing difference (mechanical hyperalgesia); conditions: morphine group, following treatment; p<0.05
Procedure: Cells were cultured in medium containing RPMI-1640 (Gibco, 500 ml), 10% heat-inactivated fetal bovine serum (Hyclone), L-glutamine (final concentration 2 mM, from Gibco) and antibiotic solution (final concentration 100 U/ml penicillin and 100 ug/ml streptomycin sulfate, from Gibco). Cells were released from the tissue culture flask by brief exposure to 0.1% trypsin so (Gibco) and then prepared for injection as follows: cells were centrifuged for 10 minutes at approximately 1,200 rpm. The resulting pellet was washed twice in Phosphate Buffered Saline (PBS, Mediatech) containing no calcium or magnesium. Final pellet was re-suspended in PBS and cell count taken using a hemocytometer. Cells were diluted to achieve final concentrations for injection and kept on ice until injection was performed. […]
(§1) On days 7, 8, 14 and 15, pain assessment tests were performed. […] The animals were first evaluated for mechanical allodynia and then thermal hyperalgesia. […] The animals were first evaluated for baseline weight bearing responses. […]
After the animals in groups 4-6 were re-randomized to drug treatment groups, on day 9, 15 all animals underwent weight-bearing testing. Weight bearing of affected hind limbs was assessed as the difference in weight borne by the ipsilateral compared to the contralateral limb. […]

[2] = test system: bone cancer rats (MRMT-1 rat mammary gland carcinoma cells injected into the tibia); assay: Bone cancer rat model: Von Frey test of mechanical allodynia; conditions: morphine 5 mg/kg; baseline vs post-dose p<0.01
Procedure: (§2) Cells were cultured in medium containing RPMI-1640 (Gibco, 500 ml), 10% heat-inactivated fetal bovine serum (Hyclone), L-glutamine (final concentration 2 mM, from Gibco) and antibiotic solution (final concentration 100 U/ml penicillin and 100 ug/ml streptomycin sulfate, from Gibco). Cells were released from the tissue culture flask by brief exposure to 0.1% trypsin so (Gibco) and then prepared for injection as follows: cells were centrifuged for 10 minutes at approximately 1,200 rpm. The resulting pellet was washed twice in Phosphate Buffered Saline (PBS, Mediatech) containing no calcium or magnesium. Final pellet was re-suspended in PBS and cell count taken using a hemocytometer. Cells were diluted to achieve final concentrations for injection and kept on ice until injection was performed.
(§3) After one week of quarantine, either culture media or 3×10^4 syngeneic MRMT-1 rat mammary gland carcinoma cells were injected into the medullary cavity of the proximal tibia of each rat. Procedurally, the animal was first anesthetized with ketamine/xylazine and the right leg area shaved and treated with an iodine solution and cleaned with a 70% ethanol solution. […]
as §1

[3] = test system: bone cancer rats (MRMT-1 rat mammary gland carcinoma cells injected into the tibia); assay: Bone cancer rat model: thermal paw stimulation (thermal hyperalgesia); conditions: morphine control group, days 14 and 15; trend to increased latency
Procedure: as §2, §3, §1

Compound: CN1CC[C@]23c4c5ccc(O)c4O[C@H]2[C@@H](O)C=C[C@H]3[C@H]1C5 [morphine, reference compound]
- amount of weight placed on contralateral paw (weight bearing difference) vs 'cells only' group [1]: significant reduction
- effect on the allodynia revealed at baseline testing (Von Frey) [2]: completely reversed the allodynia
- latency to paw removal (thermal paw testing), post-treatment [3]: did not show statistical significance
